{
  "source": "patent US5468486A",
  "about": "“Vaccine containing a protein alkaloid conjugate for the treatment of fescue toxicosis” (priority 1994, dated 1995)",
  "data": [
    {"test_system": "antiserum produced against the ergonovine KLH conjugate", "assay": "Competitive ELISA", "assay_type": "binding, rabbit", "settings": "linear regression of competitive ELISA", "procedure": "Antiserum preparation: Three female New Zealand white rabbits were immunized with the HSA-ergonovine conjugate and two with the KLH-ergonovine conjugate. Initially, each rabbit was injected with 1 mg of the respective conjugate in 1 ml of phosphate buffered saline that had been emulsified with an equal amount of Freund's complete adjuvant. Booster injections of 0.2 mg of conjugate per rabbit, emulsified with Freund's incomplete adjuvant, were given at 5 and 10 weeks after the first injections. The rabbits were bled 8 and 16 days after each booster injection. Serum was collected after two cycles of low speed centrifugation. Serum from each rabbit was pooled before testing in the competitive enzyme linked immunosorbent assay (ELISA).\nCompetitive ELISA: Duplicate polystyrene ELISA plates were numbered and rinsed once with distilled water. The HSA-ergonovine conjugate [[…] in carbonate coating buffer (0.5μsodium carbonate, pH 9.6)] was pipetted into each well ([…]). After 2H at 30° C. the plates were washed 4 times quickly with physiologically buffered saline (PBS) Tween (0.02M phosphate, 0.15M NaCl, 3 mM KC1+0.05% TWEEN 20, pH 7.3). All subsequent rinse steps were done with PBS-Tween. Serial dilutions were made of […] compounds used in the competitive assay. All dilutions were made in PBS-Tween. These compounds and their initial concentrations were: agroclavine 0.5 mM, ergocryptine at 100 μM, unconjugated ergonovine at 1 μM, ergotamine at 100 μM, ergovaline at 10 μM, lysergol at 10 mM, dihydroergotamine at 200 μM and IAA at 1 mM. After placing 100 μl of each dilution in duplicate wells, an additional 100 μl of antiserum, produced against the ergonovine KLH conjugate, was added to each well at a dilution of 1:1000 and mixed. The plates were incubated for 2 H at 30° C. and again rinsed 4 times quickly. Protein-A alkaline phosphatase (0.5 μg/ml in PBS-Tween) was placed in wells (200 μl/well) and incubated for 2 H at 30° C. The plates were again rinsed 4 times. Substrate, SIGMA 104® phosphatase substrate (5 mg/ml), in 10% diethanolamine, pH 9.6 was added to each well (150 μl/well). The reaction was stopped after 30 min. with 3M NaOH (75 μl/well). The plates were read on a DYNATECH MINIREADER II® reader. Mean values were calculated from duplicate wells per plate and duplicate plates were averaged. From these values a percent maximal absorbance level was calculated.", "values": [
      {"smiles": "C[C@@H](CO)NC(=O)[C@@H]1C=C2c3cccc4[nH]cc(c34)C[C@H]2N(C)C1", "note": "[ergonovine]", "Slope": -26.4},
      {"smiles": "CC(C)[C@H]1C(=O)N2CCC[C@H]2[C@]2(O)O[C@@](C)(NC(=O)[C@@H]3C=C4c5cccc6[nH]cc(c56)C[C@H]4N(C)C3)C(=O)N12", "note": "[ergovaline]", "Slope": -15.5},
      {"smiles": "CC1=C[C@@H]2c3cccc4[nH]cc(c34)C[C@H]2N(C)C1", "note": "[agroclavine]", "Slope": -19.4},
      {"smiles": "CN1C[C@H](CO)C=C2c3cccc4[nH]cc(c34)C[C@H]21", "note": "[lysergol]", "Slope": -13.7},
      {"smiles": "CC(C)C[C@H]1C(=O)N2CCC[C@H]2[C@]2(O)O[C@](NC(=O)[C@@H]3C=C4c5cccc6[nH]cc(c56)C[C@H]4N(C)C3)(C(C)C)C(=O)N12", "note": "[ergocryptine]", "Slope": -19.7},
      {"smiles": "CN1C[C@H](C(=O)N[C@]2(C)O[C@@]3(O)[C@@H]4CCCN4C(=O)[C@H](Cc4ccccc4)N3C2=O)C=C2c3cccc4[nH]cc(c34)C[C@H]21", "note": "[ergotamine]", "Slope": -16.1},
      {"smiles": "CN1C[C@H](C(=O)N[C@]2(C)O[C@@]3(O)[C@@H]4CCCN4C(=O)[C@H](Cc4ccccc4)N3C2=O)C[C@@H]2c3cccc4[nH]cc(c34)C[C@H]21", "note": "[dihydroergotamine]", "Slope": -22.5}
    ]}
  ]
}
